# Laboratory results taken from article PMC5996148.
# Sequences of proteins named here, by UniProt entry; tags and fusion partners are left off. A change or cut given only in a name is not applied to a line headed by its entry.
# UniProt P09471: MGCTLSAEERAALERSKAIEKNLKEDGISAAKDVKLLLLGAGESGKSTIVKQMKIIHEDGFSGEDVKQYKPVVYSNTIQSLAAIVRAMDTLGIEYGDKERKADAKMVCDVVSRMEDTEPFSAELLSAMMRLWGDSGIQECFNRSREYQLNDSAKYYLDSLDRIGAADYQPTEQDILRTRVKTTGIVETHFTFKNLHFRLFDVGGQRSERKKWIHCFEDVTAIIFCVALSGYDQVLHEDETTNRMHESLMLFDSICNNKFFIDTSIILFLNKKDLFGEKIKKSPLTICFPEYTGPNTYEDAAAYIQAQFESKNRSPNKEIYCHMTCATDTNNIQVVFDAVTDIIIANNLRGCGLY
# Where “and” joins values, the source holds several entries; their conditions need not be identical. Equal entries are not always repeated. The list shows a part of the results. For some of these results: The exact form of the protein is not confirmed.
# Key:
# Test in all cases: protein microarray (ProtoArray v5.0), streptavidin-Alexa Fluor 647
# Details in all cases: 3'-biotin; 20 mM Tris (pH 7.5), 5 mM MgCl2, 100 mM KCl, 0.1% Tween-20, A/T-rich and random oligonucleotide blockers; temperature not stated; high values mean tight binding
# [1] = test system: GLRX5 (human)
# [2] = test system: GLUL (human)
# [3] = test system: GLYATL1 (human)
# [4] = test system: GLYATL2 (human)
# [5] = test system: GLYCTK (human)
# [6] = test system: GMEB1 (human)
# [7] = test system: GMPR2 (human)
# [8] = test system: GNA15 (human)
# [9] = test system: GNAI2 (human)
# [10] = target: GNAO1 (UniProt P09471)
sequence,measurement,setting,value
GGGAGGCTGAGGCAGG [G4-1 biotinylated (PQS2)],binding signal,[1],-0.32 z-score
same,binding signal,[2],-0.302 z-score and -0.327 z-score
same,binding signal,[3],-0.31 z-score
same,binding signal,[4],-0.336 z-score
same,binding signal,[5],-0.334 z-score
same,binding signal,[6],-0.331 z-score
same,binding signal,[7],-0.321 z-score
same,binding signal,[8],-0.295 z-score
same,binding signal,[9],-0.277 z-score
same,binding signal,[10],-0.268 z-score

# Part of the list above, set out differently.
sequence	measurement	setting	value
GGGAGGCTGAGGCAGG [G4-1 biotinylated (PQS2)]	binding signal	[2]	-0.302 z-score and -0.327 z-score
same	binding signal	[3]	-0.31 z-score
